For 64 molecules, AC50 results are on record in PubChem BioAssay AID445 (National Center for Advancing Translational Sciences (NCATS), 2006).

This experiment can be described thus: IkB Signaling. As to conditions: ABC-DLBCL IkBa-CBG/CBR dual luciferase ratio (green luciferase fused to IkBa over red control in OCI-Ly3 lymphoma cells), 4 h. An outline of the steps:
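In this assay, an IκBα–CBG68 fusion accumulates when IKK-driven degradation is blocked; native CBR normalizes for cell number. OCI-Ly3 cells were treated 4 h with compound and doxycycline, then green and red light read after Chroma-Glo addition.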

The mark [1] stands for this setting: measured here: control luc red channel unless noted.

The structures appear in SMILES notation. The list shows a part of the results. These are further read-outs of the screen, such as a control signal, another cell line or another target. No call is given for them. The list favours compounds with an active or inconclusive main result. The note in brackets gives the kind of curve behind each potency; many fits are weak.

As usually defined, the AC50 is the concentration giving half of the maximal activity seen. As for `O=C(NCc1cccc(Cl)c1)c1cnc(N2CCCCC2)c2ccccc12`, the AC50 under setting [1] is 39.8 µM [falling, single point].

Consider `Cc1cccc(N2CCN(c3ncnc4onc(C)c34)CC2)c1C`, for which the AC50 under setting [1] is 7.94 µM [falling, single point].

In the case of `CCc1ccc(C2N=C(N)Nc3nc4ccccc4n32)cc1` (stereo not given), the half-maximal activity concentration (AC50) under setting [1] was 15.8 µM [falling, single point].

As to `Cc1ccc(-n2ncc(C(=O)NCCc3ccsc3)c2C2CCN(C(=O)OC(C)(C)C)CC2)c(C)c1`, the AC50 under setting [1] is 31.6 µM [falling, partial curve].

In the case of `C=C(C)COc1ccc(-c2n[nH]c(C)c2-c2ccccc2OC)c(O)c1`, the AC50 under setting [1] was 25.1 µM [falling, partial curve].

For the molecule `COc1ccc(Cl)cc1NC(=O)CN(c1cccc(C)c1C)S(C)(=O)=O`, the half-maximal activity concentration (AC50) under setting [1] is 39.8 µM [falling, single point].

Regarding `COc1cccc2c1[C@@H]1CN(CCCCn3c(=O)[nH]c4c(sc5ncc(-c6ccccc6)nc54)c3=O)C[C@H]1CO2`, the AC50 under setting [1] is 25.1 µM [falling, partial curve, poor fit] [measured here: IkB-luc green channel].

On to `COc1cccc(C(=O)Nc2nc3c(s2)CCCC3)c1`, for which the AC50 under setting [1] was 10 µM [falling, partial curve].

`CN(Cc1ccccc1)C(=O)C(=O)Nc1ccc2nc3n(c(=O)c2c1)CCCCC3`: under setting [1], the AC50 is 12.6 µM [falling, partial curve].

Consider `CNc1ccc(-c2nc(-c3ccccn3)no2)cc1[N+](=O)[O-]`, for which the AC50 under setting [1] was 25.1 µM [falling, single point].

Turning to `CCOc1cc(CNCCSc2nnnn2C)ccc1OCc1ccc(Cl)cc1Cl`, under setting [1], the AC50 was 20 µM [falling, partial curve].

Take `Cc1ccc(NC(=O)CN2C(=O)COc3ccc(S(=O)(=O)N4CCCCC4)cc32)cc1Cl`: the half-maximal activity concentration (AC50) under setting [1] was 10 µM [falling, single point].

Regarding `c1ccc(OCc2nnc3sc(-c4cccs4)nn23)cc1`, under setting [1], the AC50 is 5.01 µM [falling, full curve].

On to `CCOC(=O)c1ccc(NC(=O)c2ccc3c(c2)OCO3)cc1`, for which the AC50 under setting [1] is 1 µM [falling, partial curve].

Regarding `COC(=O)c1ccc(NC(=O)CC2C(=O)N(c3cccc(F)c3)C(=O)N2CC(C)C)cc1` (stereo not given), the AC50 under setting [1] was 31.6 µM [falling, single point].

As for `Cc1ccc(-n2nc(C(=O)N3CCCCC3)c(=O)n(C)c2=O)cc1`, under setting [1], the AC50 was 10 µM [falling, partial curve, poor fit].

On to `CC1(C)C(=O)NC2=C1C(=O)C(=O)c1ccccc12`, for which, under setting [1], the half-maximal activity concentration (AC50) is 10 µM [falling, partial curve].

For `Cc1nonc1NC(=O)CSc1nc(C2CCCCC2)nc2ccccc12`, the half-maximal activity concentration (AC50) under setting [1] was 15.8 µM [falling, partial curve].

With `CN(CC(=O)Nc1ccc(F)c(F)c1F)c1cnccn1`, the AC50 under setting [1] is 25.1 µM [falling, partial curve].

Turning to `CCOc1ccc(Nc2c(S(=O)(=O)c3ccc(Cl)cc3)cnc3ccc(OC)cc23)cc1`, the half-maximal activity concentration (AC50) under setting [1] is 15.8 µM [falling, single point].

Regarding `CCOC(=O)CC(NC(=O)CCc1c(C)nc2c(-c3ccccc3)c(C)nn2c1C)c1ccc(C)cc1` (stereo not given), the concentration at half-maximal activity (AC50) under setting [1] was 31.6 µM [falling, single point].

Turning to `COc1ccc(-c2c3c(=O)n(C)c(=O)n(C)c3cn2-c2cccc(N)c2)cc1`, under setting [1], the AC50 was 39.8 µM [falling, single point].

Turning to `Cc1noc(/C=C/N(C)C)c1S(=O)(=O)N1CCN(c2ccccc2)CC1`, under setting [1], the AC50 is 6.31 µM [falling, partial curve].

In the case of `COc1ccc(Cn2ccc3nc(C)c(C(=O)Nc4ccc(F)cc4)cc3c2=O)cc1`, the concentration at half-maximal activity (AC50) under setting [1] is 15.8 µM [falling, partial curve].

As to `CCn1cc(C(=O)NCCc2ccc(Cl)cc2)c(=O)c2cc(S(=O)(=O)N3CCc4ccccc4C3)ccc21`, the AC50 under setting [1] is 10 µM [falling, partial curve].

For the molecule `COc1ccccc1NC(=O)c1oc2ccccc2c1NC(=O)C(C)C`, the AC50 under setting [1] is 12.6 µM [falling, partial curve].

For `Cc1cccc(NC(=O)CSc2nnc3scc(-c4ccccc4)n23)c1`, the AC50 under setting [1] is 25.1 µM [falling, partial curve].

Regarding `O=C1c2ccccc2C(=O)N1Cc1nc(-c2ccccn2)no1`, the AC50 under setting [1] is 12.6 µM [falling, partial curve].

For `O=c1c(N2CCN(c3cccc(C(F)(F)F)c3)CC2)csc2ccccc12`, the half-maximal activity concentration (AC50) under setting [1] was 10 µM [falling, partial curve].

For the molecule `COc1ccc(-c2nc3ccc(NS(C)(=O)=O)cc3o2)cc1`, under setting [1], the AC50 is 25.1 µM [rising, partial curve].

On to `Cc1cc(C)cc(Nc2ccc(C(=O)O)cc2N)c1`, for which, under setting [1], the AC50 was 0.251 µM [falling, full curve].

With `CCCCN1C(=O)C2ON(c3ccccc3C)C(c3ccco3)C2C1=O` (stereo not given), under setting [1], the concentration at half-maximal activity (AC50) is 7.94 µM [falling, partial curve].

For `CCN(C(=O)c1cnc(N2CCN(c3ncccn3)CC2)c2ccccc12)c1cccc(Cl)c1`, the concentration at half-maximal activity (AC50) under setting [1] is 3.98 µM [falling, full curve].

For `Cn1c(SCC(N)=O)nc2c([nH]c3ccccc32)c1=O`, the concentration at half-maximal activity (AC50) under setting [1] is 25.1 µM [falling, partial curve].

`O=C(O)c1ccc(Nc2nc(-c3ccccc3)c3cc(Br)ccc3n2)cc1`: the AC50 under setting [1] was 0.0251 µM [falling, full curve].

On to `O=S(=O)(CCN(CCS(=O)(=O)C(F)(F)F)CC1CCCO1)C(F)(F)F` (stereo not given), for which the AC50 under setting [1] is 39.8 µM [falling, single point].

Take `Cc1cccc(NC(=O)CSc2nc3ccc(NC(=O)COc4ccc(Cl)cc4)cc3s2)c1`: the AC50 under setting [1] is 5.01 µM [falling, partial curve].

Take `Cc1c(NC(=O)Cc2ccc(F)cc2)cccc1-c1nc2cccnc2s1`: the half-maximal activity concentration (AC50) under setting [1] is 15.8 µM [falling, partial curve].

For the molecule `Cc1cccc(NC(=O)c2cc3c(=O)n(Cc4ccco4)ccc3nc2C)c1`, the AC50 under setting [1] was 39.8 µM [falling, single point].

Regarding `CCOC(=O)CN(C(=O)CSc1nnc(CNc2ccc(F)cc2)o1)c1ccccc1`, the concentration at half-maximal activity (AC50) under setting [1] is 15.8 µM [falling, partial curve].

As for `Cc1ccc(NC(=O)/C=C/c2ccc(Cl)cc2)c(Br)c1`, the AC50 under setting [1] is 3.16 µM [rising, partial curve].

For `COc1cc(C2CC(=O)c3c([nH]c(C(=O)OCc4ccc(C)cc4)c3C)C2)cc(OC)c1OC` (stereo not given), the AC50 under setting [1] is 3.98 µM [falling, full curve, poor fit].

`COc1cc(NC(=O)c2cc(Cl)ccc2Cl)ccc1NC(=O)c1cc2ccccc2o1`: under setting [1], the AC50 was 3.98 µM [falling, full curve].

Turning to `COc1ccccc1-c1nnc(C2CCN(C(=O)c3cccc(Cl)c3)CC2)o1`, the concentration at half-maximal activity (AC50) under setting [1] is 7.94 µM [falling, partial curve].

Turning to `Cc1cccc(C(c2sc3nc(-c4ccco4)nn3c2O)N2CCN(Cc3ccccc3)CC2)c1` (stereo not given), the AC50 under setting [1] was 1 µM [rising, full curve, poor fit].

Take `CCOC(=O)c1ccccc1NC(=O)Cn1c(=O)n(CCC(=O)N2CCc3ccccc3C2)c(=O)c2ccccc21`: the AC50 under setting [1] is 1.58 µM [falling, full curve].

Consider `COCCCNC(=O)c1[nH]c2ccccc2c1Sc1ccc(C)cc1`, for which, under setting [1], the AC50 is 31.6 µM [falling, single point].

With `CCS(=O)(=O)N1CCc2cc(C(=O)NCc3ccc(Cl)cc3)ccc21`, the concentration at half-maximal activity (AC50) under setting [1] is 10 µM [falling, partial curve].

As to `Cc1nc2ncnn2c(N2CCCC(C(=O)Nc3ccc4c(c3)CCC4)C2)c1C` (stereo not given), the half-maximal activity concentration (AC50) under setting [1] is 25.1 µM [falling, partial curve].

For `CCCn1c(=N)n(CC(O)COc2cccc(C)c2)c2ccccc21` (stereo not given), the AC50 under setting [1] was 15.8 µM [falling, partial curve].

For `CCN(CC)CCNc1ncnc2c1cnn2-c1cc(Cl)ccc1C`, under setting [1], the AC50 is 31.6 µM [falling, partial curve, poor fit].

Take `COc1ccc(-n2nnnc2-c2cccc(OC)c2)cc1`: the AC50 runs as follows: (measured here: IkB-luc green channel) 7.94 µM [rising, partial curve]; (measured here: control luc red channel) 3.16 µM [rising, single point].

`Cc1ccc(C(=O)Nc2nc3nc(C)cc(=O)n3[nH]2)cc1`: the half-maximal activity concentration (AC50) under setting [1] was 31.6 µM [falling, single point].

`COc1cccc(CNC(=O)CSc2nc(=O)[nH]c3c2CCC3)c1`: the AC50 under setting [1] is 39.8 µM [falling, single point].

With `CCCN(C(=O)C(=O)Nc1ccc2nc3n(c(=O)c2c1)CCCCC3)c1ccc(OCC)cc1`, the concentration at half-maximal activity (AC50) under setting [1] was 20 µM [falling, single point].

`CCS(=O)(=O)c1ccc(O)c(NC(=O)c2cc(OC)c(OC)c(OC)c2)c1`: the half-maximal activity concentration (AC50) under setting [1] is 25.1 µM [falling, partial curve].

For `CCOc1ccccc1C(=O)Nc1cccc2ccc(C)nc12`, the AC50 under setting [1] was 12.6 µM [falling, partial curve].

As to `COC(=O)c1ccccc1NC(=O)CN1CCC(n2nnc3cc(C)ccc32)CC1`, the concentration at half-maximal activity (AC50) under setting [1] was 0.794 µM [falling, full curve].

In the case of `CCN1CCN(c2csc3ccc(F)cc3c2=O)CC1`, under setting [1], the AC50 was 15.8 µM [falling, single point].

`CCn1c(/C(C#N)=C(\O)CCc2ccccc2)nc2ccccc21`: the AC50 under setting [1] is 20 µM [falling, partial curve].

In the case of `O=C(Nc1nc(-c2cccs2)c(-c2ccccc2)s1)c1ccco1`, the half-maximal activity concentration (AC50) under setting [1] is 25.1 µM [falling, partial curve].

Take `Cc1cccc(N(CC(N)=O)C2SC(=O)N(c3ccccc3)C2=O)c1` (stereo not given): the AC50 under setting [1] was 0.794 µM [falling, full curve, poor fit].

With `Cc1cccn2c(=O)cc(CSc3nnc(NC(=O)COc4ccc(F)cc4)s3)nc12`, the AC50 under setting [1] was 2.51 µM [falling, full curve].

Take `O=c1c2ccccc2cnn1-c1nc2ccccc2s1`: under setting [1], the AC50 was 0.00794 µM [falling, full curve].
